Results: PMC4376777 (PLoS Pathogens, 2015)
Results are given in words; binding and its absence hold for the method and conditions named. For part of these data: In cells and extracts the contact can be indirect. Some binding calls cover weakened binding; strength is not graded here. For part of these data: Sequences can lack the tags named with a protein.

Sequences of proteins named here, by UniProt entry; tags and fusion partners are left off. A change or cut given only in a name is not applied to a line headed by its entry. Residues count along the entry.
UniProt Q86WV6: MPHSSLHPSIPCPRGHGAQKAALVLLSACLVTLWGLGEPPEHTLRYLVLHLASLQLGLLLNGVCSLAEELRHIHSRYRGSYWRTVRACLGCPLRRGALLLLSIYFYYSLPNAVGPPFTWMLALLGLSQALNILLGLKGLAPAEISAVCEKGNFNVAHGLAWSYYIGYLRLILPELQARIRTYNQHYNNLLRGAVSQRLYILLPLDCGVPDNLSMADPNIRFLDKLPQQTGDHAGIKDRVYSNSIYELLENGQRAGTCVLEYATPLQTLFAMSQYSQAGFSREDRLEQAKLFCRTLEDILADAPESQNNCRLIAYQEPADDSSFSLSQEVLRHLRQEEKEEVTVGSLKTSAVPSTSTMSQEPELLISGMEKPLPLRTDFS
STING (amino acids 153–379), yeast two-hybrid bait: residues 153-379 of Q86WV6

How the values were obtained:
[1] = molecular target: T1, HA-tagged PPM1A (human) (UniProt P35813); assay: co-IP; HEK293 cells transfected for 24 h; lysates immunoprecipitated with anti-Myc or anti-HA beads (for TBK1 as in B and C with Flag-TBK1 instead of STING-Myc); immunoblot
T1 sequence: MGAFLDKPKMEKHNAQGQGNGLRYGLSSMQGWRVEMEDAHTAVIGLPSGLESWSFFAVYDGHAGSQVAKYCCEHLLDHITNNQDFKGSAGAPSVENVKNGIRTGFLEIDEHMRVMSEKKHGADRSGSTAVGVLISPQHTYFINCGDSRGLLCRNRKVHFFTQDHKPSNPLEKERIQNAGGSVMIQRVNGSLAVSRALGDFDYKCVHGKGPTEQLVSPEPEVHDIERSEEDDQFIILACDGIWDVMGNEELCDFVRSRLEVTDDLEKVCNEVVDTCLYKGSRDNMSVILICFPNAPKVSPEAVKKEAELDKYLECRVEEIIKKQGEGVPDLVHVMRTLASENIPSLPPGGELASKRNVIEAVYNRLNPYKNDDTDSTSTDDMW

[2] = molecular target: STING (amino acids 153–379), yeast two-hybrid bait (human) (UniProt Q86WV6); assay: two-hybrid; yeast cdc25H strain; STING (amino acids 153–379) as bait, human spleen library (Agilent)
[3] = molecular target: T2, IRF3 in mouse embryonic fibroblasts (mouse (endogenous in MEFs)), P70671; assay: native gel or EMSA; lysates of primary Ppm1a+/+ and Ppm1a-/- MEFs, untreated or transfected with ISD (2 μg/ml) for 4 h, resolved by native gel electrophoresis; immunoblot; conditions: remark: other sources report otherwise
T2 chain: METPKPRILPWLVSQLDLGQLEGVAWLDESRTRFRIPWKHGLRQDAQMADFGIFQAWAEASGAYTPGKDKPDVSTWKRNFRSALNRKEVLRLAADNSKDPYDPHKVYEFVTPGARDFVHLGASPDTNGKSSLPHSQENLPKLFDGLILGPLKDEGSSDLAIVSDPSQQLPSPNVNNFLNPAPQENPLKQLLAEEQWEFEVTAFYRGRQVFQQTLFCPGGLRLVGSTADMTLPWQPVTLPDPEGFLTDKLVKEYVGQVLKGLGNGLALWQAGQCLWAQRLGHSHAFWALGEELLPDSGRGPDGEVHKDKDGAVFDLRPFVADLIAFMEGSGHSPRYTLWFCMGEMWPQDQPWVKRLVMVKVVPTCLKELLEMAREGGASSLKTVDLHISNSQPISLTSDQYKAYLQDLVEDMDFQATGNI

[4] = molecular target: STING-Myc (amino acids 1–379) (human) (UniProt Q86WV6); assay: co-IP; HEK293 cells transfected for 24 h; lysates immunoprecipitated with anti-Myc or anti-HA beads (for TBK1 as in B and C with Flag-TBK1 instead of STING-Myc); immunoblot
[5] = molecular target: endogenous STING (THP-1 cells) (human (endogenous in THP-1)) (UniProt Q86WV6); assay: co-IP; […] immunoblot with anti-PPM1A
[6] = molecular target: T3, Flag-tagged TBK1 (human), Q9UHD2; assay: co-IP; HEK293 cells transfected for 24 h; lysates immunoprecipitated with anti-Myc or anti-HA beads (for TBK1 as in B and C with Flag-TBK1 instead of STING-Myc); immunoblot; conditions: remark: other sources report otherwise
T3 chain: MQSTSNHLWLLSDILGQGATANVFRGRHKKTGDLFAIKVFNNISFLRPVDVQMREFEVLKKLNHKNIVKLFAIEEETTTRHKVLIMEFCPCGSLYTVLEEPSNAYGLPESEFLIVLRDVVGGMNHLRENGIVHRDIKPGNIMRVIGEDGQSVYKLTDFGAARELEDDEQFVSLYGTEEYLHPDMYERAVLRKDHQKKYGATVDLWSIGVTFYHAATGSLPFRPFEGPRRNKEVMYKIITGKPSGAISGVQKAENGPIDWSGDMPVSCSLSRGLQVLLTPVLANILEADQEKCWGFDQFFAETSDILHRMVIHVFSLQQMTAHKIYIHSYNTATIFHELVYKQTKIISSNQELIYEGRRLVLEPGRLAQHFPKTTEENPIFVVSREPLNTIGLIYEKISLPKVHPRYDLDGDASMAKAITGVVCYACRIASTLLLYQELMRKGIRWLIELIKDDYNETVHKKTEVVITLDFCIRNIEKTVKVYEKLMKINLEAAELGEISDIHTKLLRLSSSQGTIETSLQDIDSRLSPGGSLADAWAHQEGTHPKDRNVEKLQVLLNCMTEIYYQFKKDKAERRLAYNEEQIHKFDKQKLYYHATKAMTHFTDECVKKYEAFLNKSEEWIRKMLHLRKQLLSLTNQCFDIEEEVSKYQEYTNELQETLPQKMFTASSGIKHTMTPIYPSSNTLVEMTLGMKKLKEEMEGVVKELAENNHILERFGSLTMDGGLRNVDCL

For “STING-Myc (amino acids 1–379) (from UniProt Q86WV6 1-379)”, which binding [1] is on record?
The binding was “binds”.

B1: PPM1A, full-length clone from the yeast two-hybrid library (enzyme, UniProt P35813-1 1-382)
chain: MGAFLDKPKMEKHNAQGQGNGLRYGLSSMQGWRVEMEDAHTAVIGLPSGLESWSFFAVYDGHAGSQVAKYCCEHLLDHITNNQDFKGSAGAPSVENVKNGIRTGFLEIDEHMRVMSEKKHGADRSGSTAVGVLISPQHTYFINCGDSRGLLCRNRKVHFFTQDHKPSNPLEKERIQNAGGSVMIQRVNGSLAVSRALGDFDYKCVHGKGPTEQLVSPEPEVHDIERSEEDDQFIILACDGIWDVMGNEELCDFVRSRLEVTDDLEKVCNEVVDTCLYKGSRDNMSVILICFPNAPKVSPEAVKKEAELDKYLECRVEEIIKKQGEGVPDLVHVMRTLASENIPSLPPGGELASKRNVIEAVYNRLNPYKNDDTDSTSTDDMW
How did the binding [2] turn out when B1 was run?
Its binding is “binds”.

B2: IRF3 in mouse embryonic fibroblasts, P70671 1-419 (protein)
chain: METPKPRILPWLVSQLDLGQLEGVAWLDESRTRFRIPWKHGLRQDAQMADFGIFQAWAEASGAYTPGKDKPDVSTWKRNFRSALNRKEVLRLAADNSKDPYDPHKVYEFVTPGARDFVHLGASPDTNGKSSLPHSQENLPKLFDGLILGPLKDEGSSDLAIVSDPSQQLPSPNVNNFLNPAPQENPLKQLLAEEQWEFEVTAFYRGRQVFQQTLFCPGGLRLVGSTADMTLPWQPVTLPDPEGFLTDKLVKEYVGQVLKGLGNGLALWQAGQCLWAQRLGHSHAFWALGEELLPDSGRGPDGEVHKDKDGAVFDLRPFVADLIAFMEGSGHSPRYTLWFCMGEMWPQDQPWVKRLVMVKVVPTCLKELLEMAREGGASSLKTVDLHISNSQPISLTSDQYKAYLQDLVEDMDFQATGNI
B2 was tested. Which binding [3] did it give?
Its binding is “binds”.

B3: HA-tagged PPM1A (enzyme, UniProt P35813-1 1-382)
chain: MGAFLDKPKMEKHNAQGQGNGLRYGLSSMQGWRVEMEDAHTAVIGLPSGLESWSFFAVYDGHAGSQVAKYCCEHLLDHITNNQDFKGSAGAPSVENVKNGIRTGFLEIDEHMRVMSEKKHGADRSGSTAVGVLISPQHTYFINCGDSRGLLCRNRKVHFFTQDHKPSNPLEKERIQNAGGSVMIQRVNGSLAVSRALGDFDYKCVHGKGPTEQLVSPEPEVHDIERSEEDDQFIILACDGIWDVMGNEELCDFVRSRLEVTDDLEKVCNEVVDTCLYKGSRDNMSVILICFPNAPKVSPEAVKKEAELDKYLECRVEEIIKKQGEGVPDLVHVMRTLASENIPSLPPGGELASKRNVIEAVYNRLNPYKNDDTDSTSTDDMW
How did the binding [4] turn out when B3 was run?
Its binding is “binds”.

B4: endogenous PPM1A (THP-1 cells) (enzyme, UniProt P35813 1-382)
chain: MGAFLDKPKMEKHNAQGQGNGLRYGLSSMQGWRVEMEDAHTAVIGLPSGLESWSFFAVYDGHAGSQVAKYCCEHLLDHITNNQDFKGSAGAPSVENVKNGIRTGFLEIDEHMRVMSEKKHGADRSGSTAVGVLISPQHTYFINCGDSRGLLCRNRKVHFFTQDHKPSNPLEKERIQNAGGSVMIQRVNGSLAVSRALGDFDYKCVHGKGPTEQLVSPEPEVHDIERSEEDDQFIILACDGIWDVMGNEELCDFVRSRLEVTDDLEKVCNEVVDTCLYKGSRDNMSVILICFPNAPKVSPEAVKKEAELDKYLECRVEEIIKKQGEGVPDLVHVMRTLASENIPSLPPGGELASKRNVIEAVYNRLNPYKNDDTDSTSTDDMW
B4 was tested. Which binding [5] did it give?
Its binding is “binds”.

B5: HA-tagged PPM1A, P35813-1 1-382 (enzyme)
chain: MGAFLDKPKMEKHNAQGQGNGLRYGLSSMQGWRVEMEDAHTAVIGLPSGLESWSFFAVYDGHAGSQVAKYCCEHLLDHITNNQDFKGSAGAPSVENVKNGIRTGFLEIDEHMRVMSEKKHGADRSGSTAVGVLISPQHTYFINCGDSRGLLCRNRKVHFFTQDHKPSNPLEKERIQNAGGSVMIQRVNGSLAVSRALGDFDYKCVHGKGPTEQLVSPEPEVHDIERSEEDDQFIILACDGIWDVMGNEELCDFVRSRLEVTDDLEKVCNEVVDTCLYKGSRDNMSVILICFPNAPKVSPEAVKKEAELDKYLECRVEEIIKKQGEGVPDLVHVMRTLASENIPSLPPGGELASKRNVIEAVYNRLNPYKNDDTDSTSTDDMW
Which binding [6] does the source give for B5 here?
Its binding is “binds”.
